Measurements published in PubChem BioAssay AID540276 (National Center for Advancing Translational Sciences (NCATS), 2011).
Several values for one entry are separate records, joined by “and”; a condition that tells them apart may be missing. Identical values can stand only once. Screen size: about 300,000 compounds; about 5,400 (1.8%) were called active. Inconclusive means that the source gave no clear call. Such entries were picked first, then a sample of the others. The call rests on the fitted dose curve; tested in HEK293 cells. Potencies beside an inconclusive call are fits to weak or partial responses and may not hold up.

assay: qHTS for inhibitors of binding or entry into cells for Marburg Virus; settings: Marburg virus pseudotyped entry inhibition, cell reporter; series mostly up to 37.8 µM
Potency means the concentration at half of the fitted maximal effect.

SMILES	Potency
COc1ccc(C2CC(=O)N(CC(=O)Nc3ccc(C)c(Cl)c3)c3ccccc3S2)cc1OC (stereo unspecified)	inconclusive: 35.5 µM [inhibitor, single point]
COc1ccc(-c2nc(SCC(=O)NC3CCCC3)c(-c3ccc(C)cc3)[nH]2)cc1OC	inconclusive: 4.47 µM [inhibitor, full curve]
O=C(CSc1ccc(-c2ccccn2)nn1)NCc1ccc(F)cc1	inconclusive: 8.91 µM [inhibitor, partial curve, poor fit]
COc1ccc(C(C(=O)NC2CCCC2)N(Cc2cccnc2)C(=O)Cc2cccs2)cc1OC (stereo unspecified)	inactive
C=CCn1c(SCC(=O)c2[nH]c(C)c(C(=O)OCC)c2C)nc2scc(-c3ccc(OC)cc3)c2c1=O	inconclusive: 2.82 µM [inhibitor, single point]
Cc1cccc(CSC2=NN3CCCC(=O)N=C3S2)c1	inactive
COc1cc(C(O)CO)ccc1OS(=O)(=O)O (stereo unspecified)	inconclusive: 501 nM [inhibitor, full curve] and inconclusive: 3.26 µM [activator, full curve, poor fit]
CCOc1ccc(S(=O)(=O)N(C)c2ccc(OCC(=O)NCc3ccco3)cc2)cc1	inconclusive: 14.1 µM [inhibitor, single point]
O=C(N/N=C/c1ccccn1)C12CC3CC(CC(C3)C1)C2	inconclusive: 5.62 µM [activator, single point]
Nc1nc(CCl)nc(Nc2ccc3ccccc3c2)n1	inconclusive: 22.4 µM [inhibitor, partial curve, poor fit]
COc1ccccc1C(=O)NC(C)c1ccc(-n2ccnc2)cc1 (stereo unspecified)	inactive
O=C(CN1CCN(C(=O)c2ccco2)CC1)Nc1c2c(nc3c1CCC3)CCCC2	inactive
COc1ccc(/C=N/N=C/c2ccc(OC)c(OC)c2)cc1OC	inactive
CC(C)NC(=O)Nc1ccc(Br)cc1Cl	inactive
Cc1ccc(C)c(N2CCN(C(=O)c3cc(S(=O)(=O)N4CCOCC4)ccc3F)CC2)c1	inconclusive: 28.2 µM [inhibitor, single point]
CC(C)Oc1cccc(C(=O)C2CCCN(Cc3cnc(N4CCOCC4)s3)C2)c1 (stereo unspecified)	inconclusive: 10 µM [inhibitor, partial curve, poor fit]
Fc1ccc(OCc2nnc(-c3ccccc3Br)o2)c(Cl)c1	inconclusive: 5.8 µM [inhibitor, full curve]
O=C(CSc1ccc(-c2ccccn2)nn1)Nc1cccc(F)c1	inconclusive: 35.5 µM [inhibitor, partial curve, poor fit]
CS(=O)(=O)c1ccc(NC(=O)c2cccc(S(=O)(=O)N3CCN(Cc4ccccc4)CC3)c2)cc1	inconclusive: 12.6 µM [inhibitor, single point]
Cc1ccc(CNC(=O)C(CCC(N)=O)NC(=O)OCc2ccccc2)cc1 (stereo unspecified)	inactive
Cc1cc(C(=O)NCCC2=CCCCC2)c(C)o1	active: 14.6 µM
Cc1ccccc1OCCC(=O)N(CC(=O)Nc1ccccc1C(F)(F)F)Cc1ccco1	inconclusive: 14.1 µM [inhibitor, partial curve, poor fit]

SMILES	Potency
O=C(NCC(=O)N1CCN(S(=O)(=O)c2ccccc2)CC1)c1ccc(Br)o1	inconclusive: 1.26 µM [inhibitor, single point]
CCCCn1c(O)c(/C(CC)=N/N2CCCCC2c2cccnc2)c(=O)[nH]c1=S (stereo unspecified)	inconclusive: 23.1 µM [inhibitor, single point]
COc1ccccc1CN(C)C(=O)C(c1ccccc1)c1ccccc1	inconclusive: 35.5 µM [inhibitor, single point]
COc1ccc(NC(=O)c2ccc(OC(=S)N(C)c3ccc(OC)cc3)cc2)cc1	inconclusive: 29.1 µM [inhibitor, single point]
CCOC(=O)c1ccc(NC(=O)N2CCN(Cc3ccccc3)CC2)cc1	inconclusive: 11.2 µM [inhibitor, single point]
O=C(Cc1ccc(F)cc1)OCC(=O)N1CCN(S(=O)(=O)c2ccc(Cl)cc2)CC1	inactive
O=C(CCl)N(c1ccccc1)C1CCS(=O)(=O)C1 (stereo unspecified)	inconclusive: 35.5 µM [inhibitor, single point]
COc1ccc(C(CNC(=O)c2ccc(NS(=O)(=O)c3ccc(F)c(C)c3)cc2)N2CCCC2)cc1 (stereo unspecified)	inconclusive: 12.6 µM [inhibitor, partial curve, poor fit]
O=[N+]([O-])c1ccc(Oc2ccc(OCc3ccccc3)cc2)nc1	inactive
Cc1scc(C(=O)NNC(=S)NCC(C)C)c1C	inconclusive: 2.82 µM [activator, partial curve, poor fit]
CCOC(=O)C1CCN(C(=O)Nc2ccc(Cl)cc2Cl)CC1	inconclusive: 16.4 µM [activator, single point]
O=C(N/N=C/c1ccc(OC(=O)c2cccc(F)c2)cc1)c1cccnc1	inactive
O=C(CCC1N=C2c3ccccc3N=C(SCc3ccccc3Cl)N2C1=O)NCc1ccco1 (stereo unspecified)	inconclusive: 7.3 µM [inhibitor, single point]
Cc1ccc(C(=O)c2cn(Cc3ccccc3C)c3nc(C)ccc3c2=O)cc1	inconclusive: 35.5 µM [inhibitor, single point]
CC(C)CC(NS(=O)(=O)c1ccc2[nH]c(=O)c(=O)[nH]c2c1)C(=O)O (stereo unspecified)	inconclusive: 0.891 µM [inhibitor, full curve, poor fit]
Cc1ccccc1-c1cc2nccc(-c3cc(Cl)ccc3O)n2n1	inactive
Cc1ccc(NC(=S)Nc2ccc3cn[nH]c3c2)c(C)c1	inactive
COC(=O)C(CC(=O)Nc1cc(C)ccc1C)Nc1ccccc1OC (stereo unspecified)	inconclusive: 1.26 µM [activator, full curve, poor fit]
COc1ccc(C(=S)N2CCCC2)cc1Br	inconclusive: 3.16 µM [inhibitor, single point]
Cc1ccc(Nc2nnc(SCC(=O)Nc3cccc(S(=O)(=O)N4CCCCC4)c3)s2)cc1	inconclusive: 12.6 µM [inhibitor, single point]
COc1ccc2cc(C(=O)N/N=C/c3sc4ccccc4c3O)ccc2c1	inconclusive: 35.5 µM [inhibitor, single point]
CS(=O)(=O)Cc1cc(Sc2ccccc2)nc(-c2ccncc2)n1	inconclusive: 22.4 µM [inhibitor, single point]

SMILES	Potency
Nc1ccc(Oc2ccc(Br)cc2)cc1	inactive
Cc1ccc2nc(NC(=O)Cc3cccs3)sc2c1	inconclusive: 29.1 µM [inhibitor, single point]
Cc1ccc(N=C2NC(=O)/C(=C/C=C/c3ccco3)S2)cc1	inactive
COc1ccc(C(=O)OCC(=O)NCCCc2ccccc2)cc1[N+](=O)[O-]	inactive
Cc1cccc(C)c1OCC(O)CN1CCC(CN2C(=O)c3cccc4cccc(c34)C2=O)CC1 (stereo unspecified)	inconclusive: 35.5 µM [inhibitor, single point]
CSCC[C@H](NC(=O)c1cccc(S(=O)(=O)N2CCN(C)CC2)c1)c1nc2ccccc2[nH]1	inconclusive: 5.62 µM [activator, full curve, poor fit]
CC12CCC(C(=O)N/N=C/c3ccc(O)cc3O)(OC1=O)C2(C)C (stereo unspecified)	inconclusive: 35.5 µM [inhibitor, single point]
COc1ccc(NC(=S)Nc2ccc(OCc3ccccc3)cc2)c(OC)c1	inconclusive: 1.26 µM [activator, single point]
CC(OC(=O)C1CCN(S(=O)(=O)c2ccc(C(C)(C)C)cc2)CC1)C(=O)N1CCOCC1 (stereo unspecified)	inconclusive: 12.6 µM [inhibitor, single point]
O=c1[nH]c2ccc(NCc3ccc(-c4cccc(Cl)c4)o3)cc2[nH]1	inconclusive: 5.62 µM [inhibitor, single point]
CCOc1ccc(S(=O)(=O)N2CCN(c3cc(Cl)ccc3Cl)CC2)c2ccccc12	inconclusive: 12.6 µM [activator, single point]
Cc1cc(C=O)c(C)n1-c1ccc(N2CCOCC2)cc1	inactive
Cc1ccc([C@H]2C[C@H](n3cc(C4CC4)nn3)[C@@H](O)CN2C(=O)C2CCCCC2)cc1	inconclusive: 0.0353 µM [activator, full curve, poor fit]
CC(C)(C)CC(C)(C)c1ccc(O)c(CN2CCN(CCC#N)CC2)c1	inconclusive: 11.6 µM [inhibitor, partial curve, poor fit]
CCCCC(=O)N/N=C(\C)c1cccc(NC(=O)C2CC2)c1	inconclusive: 0.0651 µM [inhibitor, full curve, poor fit]
Cc1nnc(NC(=O)c2sc3ccccc3c2Cl)s1	inconclusive: 2.82 µM [inhibitor, partial curve, poor fit]
O=C(C1CCCN(Cc2cccs2)C1)N1CCCCCC1 (stereo unspecified)	inconclusive: 3.98 µM [activator, full curve]
O=C(Nc1ccc(Br)cc1)C1CCCN(S(=O)(=O)c2ccc(Br)s2)C1 (stereo unspecified)	inconclusive: 35.5 µM [activator, single point]
Fc1cccc2sc(Nc3nnc(-c4ccco4)o3)nc12	inconclusive: 15.8 µM [inhibitor, single point]
COc1ccc(/C=C2/CCOC2=O)cc1	inactive
COc1ccc(OC)c(C(Nc2ccccc2)P(=O)(OC(C)C)OC(C)C)c1 (stereo unspecified)	inconclusive: 0.355 µM [inhibitor, full curve, poor fit]
O=C(Nc1nnc(SCC(=O)N2CCCc3ccccc32)s1)c1ccc2ccccc2c1	inconclusive: 6.31 µM [inhibitor, full curve, poor fit]
